Measurements published in patent publication US20230144876A1 (UNIVERSITY OF KITAKYUSHU, published 2023).
Results are given in words; binding and its absence hold for the method and conditions named. Some entries that bind do so weakly or less than the wild type.

Target: MHC-1 (MHC class I molecules) on murine dendritic cell line DC2.4 cells (mouse)
Assay: competition with OVA peptide 1 for MHC-1 on DC2.4 cells, flow cytometry

binding: binds
B1: C-TRP2-8 (cysteine added to the N-terminus of residues 181 to 188 of mTRP2) (peptide)
peptide: CVYDFFVWL
